Data: article PMC4432389, “Cytosolic Hsp70 and co-chaperones constitute a novel system for tRNA import into the nucleus” (eLife, 2015)
No constants are given. Whether binding was seen depends on the method and setting.

The chains behind the UniProt entries cited, without tags or fusion partners. Residues count along the entry.
UniProt Q02629, residues 1-640: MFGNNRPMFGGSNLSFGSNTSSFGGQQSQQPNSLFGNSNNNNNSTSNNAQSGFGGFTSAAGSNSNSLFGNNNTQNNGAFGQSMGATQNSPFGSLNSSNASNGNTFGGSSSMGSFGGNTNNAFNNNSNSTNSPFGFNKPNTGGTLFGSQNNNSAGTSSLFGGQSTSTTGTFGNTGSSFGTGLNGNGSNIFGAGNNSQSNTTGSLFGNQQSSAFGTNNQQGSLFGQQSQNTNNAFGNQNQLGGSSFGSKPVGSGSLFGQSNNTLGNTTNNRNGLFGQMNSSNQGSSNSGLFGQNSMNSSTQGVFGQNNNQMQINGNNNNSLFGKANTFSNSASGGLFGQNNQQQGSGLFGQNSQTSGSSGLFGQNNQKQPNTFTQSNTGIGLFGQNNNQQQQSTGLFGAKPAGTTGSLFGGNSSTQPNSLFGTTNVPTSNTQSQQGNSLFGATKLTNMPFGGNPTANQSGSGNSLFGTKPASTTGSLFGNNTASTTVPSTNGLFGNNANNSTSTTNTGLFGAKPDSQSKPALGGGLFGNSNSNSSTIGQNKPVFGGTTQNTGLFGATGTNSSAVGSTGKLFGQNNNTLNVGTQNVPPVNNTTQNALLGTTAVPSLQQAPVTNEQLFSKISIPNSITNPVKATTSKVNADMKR
UniProt P10591: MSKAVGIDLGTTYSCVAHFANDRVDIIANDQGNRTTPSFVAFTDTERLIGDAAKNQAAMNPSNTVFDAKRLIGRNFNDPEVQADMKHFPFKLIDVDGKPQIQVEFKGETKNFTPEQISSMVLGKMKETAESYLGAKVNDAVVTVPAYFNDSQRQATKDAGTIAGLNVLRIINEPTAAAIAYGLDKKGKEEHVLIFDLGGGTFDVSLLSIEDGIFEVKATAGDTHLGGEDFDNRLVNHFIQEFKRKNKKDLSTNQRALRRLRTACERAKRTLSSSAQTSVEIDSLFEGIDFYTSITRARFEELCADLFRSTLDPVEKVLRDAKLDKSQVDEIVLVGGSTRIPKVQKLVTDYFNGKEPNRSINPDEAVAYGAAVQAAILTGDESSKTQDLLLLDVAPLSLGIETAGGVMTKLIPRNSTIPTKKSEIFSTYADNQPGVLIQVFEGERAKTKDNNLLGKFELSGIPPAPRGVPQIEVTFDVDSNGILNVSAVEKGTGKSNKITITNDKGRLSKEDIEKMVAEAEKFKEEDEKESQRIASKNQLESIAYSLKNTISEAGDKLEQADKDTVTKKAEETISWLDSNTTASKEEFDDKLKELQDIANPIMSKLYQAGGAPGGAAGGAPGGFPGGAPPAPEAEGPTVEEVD

Target: GST-Nup100(1–640)p (S. cerevisiae) (UniProt Q02629)
Experiment: pull-down; 200 pmol GST or GST-nucleoporin fusion and 40 pmol Ssa1p or Ssa2p incubated with Glutathione Sepharose in Buffer 88 (20 mM HEPES-KOH pH 6.8, 2 mM Mg(OAc)2, 150 mM KOAc) with 0.10% wt/vol Tween-20, 4°C, 2 hr; eluted with 10 mM reduced glutathione; Ssa proteins detected by Western blotting with anti-Ssa protein antibodies; both purified

Substance: Ssa1p (from UniProt P10591 1-642)
- binding: no binding (tested: 200 pmol GST fusion, 40 pmol Ssa protein)
